These results are taken from publication PMC9406528.

Assay [1] concerns the target T1, GFP-USP29 wildtype (ubiquitin-specific peptidase 29) (human) (UniProt Q9HBJ7).
T1 sequence: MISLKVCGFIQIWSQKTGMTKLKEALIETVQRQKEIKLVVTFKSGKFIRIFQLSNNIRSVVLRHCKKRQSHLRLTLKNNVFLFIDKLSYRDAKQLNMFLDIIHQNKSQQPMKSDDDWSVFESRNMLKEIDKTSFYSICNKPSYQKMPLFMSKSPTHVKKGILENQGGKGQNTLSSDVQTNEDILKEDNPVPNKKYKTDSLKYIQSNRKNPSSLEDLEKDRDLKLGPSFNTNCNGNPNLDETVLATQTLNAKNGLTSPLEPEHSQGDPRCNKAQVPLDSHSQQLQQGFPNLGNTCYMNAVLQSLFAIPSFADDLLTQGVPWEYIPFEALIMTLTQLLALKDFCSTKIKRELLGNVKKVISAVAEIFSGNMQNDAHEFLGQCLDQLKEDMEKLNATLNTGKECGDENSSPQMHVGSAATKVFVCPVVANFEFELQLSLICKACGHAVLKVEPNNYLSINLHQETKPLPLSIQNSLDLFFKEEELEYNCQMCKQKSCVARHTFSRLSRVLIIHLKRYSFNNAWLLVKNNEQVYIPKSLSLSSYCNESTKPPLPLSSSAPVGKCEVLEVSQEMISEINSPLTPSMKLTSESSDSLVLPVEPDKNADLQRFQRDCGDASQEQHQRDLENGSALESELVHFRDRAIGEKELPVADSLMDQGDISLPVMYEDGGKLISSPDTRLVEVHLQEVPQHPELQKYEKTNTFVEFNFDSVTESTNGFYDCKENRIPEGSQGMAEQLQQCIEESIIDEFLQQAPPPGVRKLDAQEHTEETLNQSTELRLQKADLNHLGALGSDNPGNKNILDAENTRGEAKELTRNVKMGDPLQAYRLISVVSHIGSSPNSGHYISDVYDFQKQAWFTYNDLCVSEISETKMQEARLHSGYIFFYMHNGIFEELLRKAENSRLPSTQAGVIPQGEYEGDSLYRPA
Briefly: co-IP; 293T cells co-transfected with HA-SETD8 and GFP-USP29 (WT or CI); EB150 lysis buffer (50 mM Hepes pH 7.5, 150 mM NaCl, 5 mM EDTA, 2 mM MgCl2, 0.5% NP40, 10% glycerol); GFP immunoprecipitation on antibody-coupled protein A-sepharose, 2 h at 4 °C, four washes; Western blot.

Assay [2] addresses T2, HA-SETD8 (UniProt Q9NQR1).
T2 sequence: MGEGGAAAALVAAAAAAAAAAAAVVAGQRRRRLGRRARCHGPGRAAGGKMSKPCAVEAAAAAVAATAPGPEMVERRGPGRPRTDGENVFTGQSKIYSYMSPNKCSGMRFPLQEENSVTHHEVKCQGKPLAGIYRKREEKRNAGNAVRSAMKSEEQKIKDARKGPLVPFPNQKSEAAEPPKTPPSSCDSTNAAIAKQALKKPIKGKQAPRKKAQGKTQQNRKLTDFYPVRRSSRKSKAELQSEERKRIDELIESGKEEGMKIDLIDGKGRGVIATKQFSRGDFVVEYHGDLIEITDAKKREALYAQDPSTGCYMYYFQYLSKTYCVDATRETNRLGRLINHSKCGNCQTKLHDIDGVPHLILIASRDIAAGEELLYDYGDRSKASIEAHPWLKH
As to the kind of experiment: co-IP; 293T cells co-transfected with HA-SETD8 and GFP-USP29 (WT or CI); EB150 lysis buffer (50 mM Hepes pH 7.5, 150 mM NaCl, 5 mM EDTA, 2 mM MgCl2, 0.5% NP40, 10% glycerol); HA immunoprecipitation on antibody-coupled protein A-sepharose, 2 h at 4 °C, four washes; Western blot.

These are yes or no findings as the source states them, for the method shown. In cells and extracts the contact can be indirect. Some binding calls cover weakened binding; strength is not graded here. Tags and fused reporters may be left off the sequences shown.

B1: HA-SETD8 (enzyme, UniProt Q9NQR1 1-393)
chain: T2 sequence
Consider B1, for which the binding result in assay [1] was “binds”.

B2: GFP-USP29 wildtype (ubiquitin-specific peptidase 29) (enzyme, UniProt Q9HBJ7 1-922)
chain: T1 sequence
For the molecule B2, the binding entry in assay [2] is “binds”.
